Assay results reported in patent US20120015906A1, “USES OF BORTEZOMIB IN PREDICTING SURVIVAL IN MULTIPLE MYELOMA PATIENTS” (priority 2009, published 2012).
“Also recorded” adds a separate entry of the source. For at least one compound, name, drawing or mass did not settle the structure.

Columns and labels:
[1] = test system: proteasome genes; assay: Proteasome gene expression changes after short-term exposure (test-dosing) to bortezomib, dexamethasone, thalidomide, melphalan; format: in vivo, human; conditions: test-dosing in myeloma patients
Description: In earlier studies, pharmacogenomics was used to identify genes altered by short-term exposure of therapy-naïve cases to thalidomide and dexamethasone. Little to no overlap was found in the genes altered by these agents with those altered by bortezomib.

[2] = test system: proteasome genes; conditions: Burington et al., 2009; cited from earlier work

C[C@@H]1C[C@H]2[C@@H]3CCC4=CC(=O)C=C[C@]4(C)[C@@]3(F)[C@@H](O)C[C@]2(C)[C@@]1(O)C(=O)CO [dexamethasone]
proteasome gene expression change after short-term exposure [1]: complete lack of activation; also recorded: did not change | hyperactivation of proteasome genes after short-term drug [2]: not associated with hyperactivation of proteasome genes
